Measured values published in PubChem BioAssay AID248 (DTP/NCI, 2004).
The list shows only some results of the screen, not a fair sample: it is rich in T/C values a quarter to a half above the control, in often repeated tests (any T/C) and in doses without a T/C. Other doses and runs of a compound stand elsewhere. T/C: endpoint of the treated group in % of that of the vehicle group. Some entries give survivors of the animals treated and no T/C: the source files T/C as zero there, which appears to mark a toxic dose or a test without result, not a measured value. Some doses without a T/C left all or most animals alive at the check, yet need not have been tolerated: survival well below the control is almost never listed, so the zero probably covers shortened survival too. Survivors were counted at the toxicity check, usually on the fifth day, unless a day is given; later deaths do not show. Schedule codes are those of the source, taken here to give the interval after Q, in days (D) or hours (H), and the number of doses after X. Some schedules carry Z or #; the key to these is not given. Where survival is the endpoint, the PubChem record calls one and a half times the control and up active, and a quarter to a half above the control has no call in these data; cut-offs in other NCI protocols can differ. Some doses were run more than once; the values are given in rising order. Some T/C values carry the count of animals alive at the toxicity check (mostly the fifth day); without a count, all were alive then.

System: L1210 leukemia ip in BDF1 mice, survival T/C
Experiment: NCI In Vivo Anticancer Drug Screen. Data for tumor model L1210 Leukemia (intraperitoneal) in B6D2F1 (BDF1) mice
Details: higher T/C = longer survival
[1] = T/C endpoint: mean survival time, dose: 637.0 mg/kg/injection, schedule: Q01DX001 (ip), vehicle: saline with Tween-80
[2] = T/C endpoint: mean survival time, dose: 800.0 mg/kg/injection, schedule: Q## X024 (ip), vehicle: other
[3] = T/C endpoint: mean survival time, dose: 956.0 mg/kg/injection, schedule: Q01DX001 (ip), vehicle: saline with Tween-80

Q: What does the source list for `NC(=S)N/N=C/c1ccc(O)cn1`?
A: survivor count (T/C endpoint: mean survival time, dose: 200.0 mg/kg/injection, schedule: Q01DX009 (ip), vehicle: saline with Tween-80): 10 of 10; T/C (T/C endpoint: mean survival time, dose: 200.0 mg/kg/injection, schedule: Q01DX009 (oral), vehicle: other): 142 % of control; T/C (T/C endpoint: mean survival time, dose: 200.0 mg/kg/injection, schedule: Q01DX015 (ip), vehicle: carboxymethylcellulose (CMC)): 126 % of control [5 of 6 alive]; survivor count (T/C endpoint: mean survival time, dose: 200.0 mg/kg/injection, schedule: Q03HX024 (ip), vehicle: alkali diluted with saline): 6 of 10; T/C (T/C endpoint: mean survival time, dose: 200.0 mg/kg/injection, schedule: Q## X003 (ip), vehicle: other): 140 % of control; T/C (T/C endpoint: mean survival time, dose: 300.0 mg/kg/injection, schedule: Q01DX001 (ip), vehicle: other): 127 % of control; T/C (T/C endpoint: mean survival time, dose: 300.0 mg/kg/injection, schedule: Q01DX001 (ip), vehicle: saline, evaluated on day 7): 137 % of control; T/C (T/C endpoint: mean survival time, dose: 300.0 mg/kg/injection, schedule: Q01DX001 (ip), vehicle: saline, evaluated on day 63): 138 % of control; T/C (T/C endpoint: mean survival time, dose: 300.0 mg/kg/injection, schedule: Q01DX005 (ip), vehicle: alkali diluted with saline): 140 % of control; T/C (T/C endpoint: mean survival time, dose: 300.0 mg/kg/injection, schedule: Q01DX005 (ip), vehicle: other, evaluated on day 30): 172, 206, 216 % of control; T/C (T/C endpoint: mean survival time, dose: 300.0 mg/kg/injection, schedule: Q01DX005 (ip), vehicle: other, evaluated on day 40): 280 % of control [9 of 10 alive]; survivor count (T/C endpoint: mean survival time, dose: 300.0 mg/kg/injection, schedule: Q01DX005 (iv), vehicle: other): 0 of 5; T/C (T/C endpoint: mean survival time, dose: 300.0 mg/kg/injection, schedule: Q01DX009 (ip), vehicle: alkali diluted with saline): 147 % of control; T/C (T/C endpoint: mean survival time, dose: 300.0 mg/kg/injection, schedule: Q01DX009 (ip), vehicle: other): 140 % of control; survivor count (T/C endpoint: mean survival time, dose: 300.0 mg/kg/injection, schedule: Q03HX008 (ip), vehicle: alkali diluted with saline): 6 of 10; survivor count (T/C endpoint: mean survival time, dose: 300.0 mg/kg/injection, schedule: Q03HX016 (ip), vehicle: alkali diluted with saline): 4 of 10; T/C (T/C endpoint: mean survival time, dose: 300.0 mg/kg/injection, schedule: Q## X002 (ip), vehicle: other): 140 % of control; T/C (T/C endpoint: mean survival time, dose: 400.0 mg/kg/injection, schedule: Q04DX003 (ip), vehicle: alkali diluted with saline): 135 % of control; T/C (T/C endpoint: mean survival time, dose: 500.0 mg/kg/injection, schedule: Q01DX001 (ip), vehicle: saline): 144 % of control; T/C (T/C endpoint: mean survival time, dose: 600.0 mg/kg/injection, schedule: Q01DX001 (ip), vehicle: other): 133 % of control; T/C (T/C endpoint: mean survival time, dose: 600.0 mg/kg/injection, schedule: Q01DX001 (ip), vehicle: saline, evaluated on day 7): 140 % of control; T/C (T/C endpoint: mean survival time, dose: 600.0 mg/kg/injection, schedule: Q01DX001 (ip), vehicle: saline, evaluated on day 63): 142 % of control; survivor count (T/C endpoint: mean survival time, dose: 600.0 mg/kg/injection, schedule: Q01DX005 (ip), vehicle: alkali diluted with saline): 3 of 10; survivor count (T/C endpoint: mean survival time, dose: 600.0 mg/kg/injection, schedule: Q01DX009 (ip), vehicle: alkali diluted with saline): 3 of 10; T/C (T/C endpoint: mean survival time, dose: 600.0 mg/kg/injection, schedule: Q## X002 (ip), vehicle: other): 143 % of control; T/C [1]: 128 % of control; survivor count [1]: 10 of 10; survivor count (T/C endpoint: mean survival time, dose: 800.0 mg/kg/injection, schedule: Q03HX024 (ip), vehicle: clinical formulation): 4 of 10; survivor count (T/C endpoint: mean survival time, dose: 800.0 mg/kg/injection, schedule: Q03HX024 (ip), vehicle: other): 7 of 10; survivor count (T/C endpoint: mean survival time, dose: 800.0 mg/kg/injection, schedule: Q04DX003 (ip), vehicle: alkali diluted with saline): 5 of 10; T/C (T/C endpoint: mean survival time, dose: 800.0 mg/kg/injection, schedule: Q## X016 (oral), vehicle: other): 137 % of control; T/C [2]: 141 % of control [9 of 10 alive]; survivor count [2]: 6 of 10; T/C [3]: 140 % of control; survivor count [3]: 10 of 10; survivor count (T/C endpoint: mean survival time, dose: 1200.0 mg/kg/injection, schedule: Q01DX001 (ip), vehicle: alkali diluted with saline): 0 of 10; survivor count (T/C endpoint: mean survival time, dose: 1200.0 mg/kg/injection, schedule: Q08DX002 (ip), vehicle: alkali diluted with saline): 0 of 10; survivor count (T/C endpoint: mean survival time, dose: 1600.0 mg/kg/injection, schedule: Q04DX003 (ip), vehicle: alkali diluted with saline): 0 of 10; T/C (T/C endpoint: mean survival time, dose: 1600.0 mg/kg/injection, schedule: Q## X003 (ip), vehicle: other): 126 % of control [9 of 10 alive]; survivor count (T/C endpoint: mean survival time, dose: 2400.0 mg/kg/injection, schedule: Q01DX001 (ip), vehicle: alkali diluted with saline): 0 of 10; survivor count (T/C endpoint: mean survival time, dose: 2400.0 mg/kg/injection, schedule: Q08DX002 (ip), vehicle: alkali diluted with saline): 0 of 10; T/C (T/C endpoint: mean survival time, dose: 2400.0 mg/kg/injection, schedule: Q## X008 (ip), vehicle: other): 141 % of control [8 of 9 alive]; T/C (T/C endpoint: median survival time, dose: 10.0 mg/kg/injection, schedule: Q03HX024 (ip), vehicle: other): 140 % of control; T/C (T/C endpoint: median survival time, dose: 10.0 mg/kg/injection, schedule: Q03HX024 (sc), vehicle: other): 130 % of control; T/C (T/C endpoint: median survival time, dose: 50.0 mg/kg/injection, schedule: Q01DX009 (sc), vehicle: other): 140 % of control; T/C (T/C endpoint: median survival time, dose: 75.0 mg/kg/injection, schedule: Q01DX009 (ip), vehicle: water, evaluated on day 5): 142 % of control; T/C (T/C endpoint: median survival time, dose: 75.0 mg/kg/injection, schedule: Q01DX009 (ip), vehicle: water, evaluated on day 22): 144 % of control; T/C (T/C endpoint: median survival time, dose: 200.0 mg/kg/injection, schedule: Q01DX009 (ip), vehicle: other): 130 % of control; T/C (T/C endpoint: median survival time, dose: 200.0 mg/kg/injection, schedule: Q01DX009 (sc), vehicle: other): 140 % of control; T/C (T/C endpoint: median survival time, dose: 200.0 mg/kg/injection, schedule: Q04DX003 (sc), vehicle: other): 125 % of control; T/C (T/C endpoint: median survival time, dose: 300.0 mg/kg/injection, schedule: Q01DX009 (ip), vehicle: other): 127 % of control; survivor count (T/C endpoint: median survival time, dose: 400.0 mg/kg/injection, schedule: Q01DX009 (ip), vehicle: other): 6 of 8; survivor count (T/C endpoint: median survival time, dose: 400.0 mg/kg/injection, schedule: Q01DX009 (sc), vehicle: other): 8 of 8; T/C (T/C endpoint: median survival time, dose: 500.0 mg/kg/injection, schedule: Q01DX001 (ip), vehicle: saline): 145 % of control; survivor count (T/C endpoint: median survival time, dose: 800.0 mg/kg/injection, schedule: Q04DX003 (ip), vehicle: other): 0 of 8; survivor count (T/C endpoint: median survival time, dose: 800.0 mg/kg/injection, schedule: Q04DX003 (sc), vehicle: other): 3 of 8
